For some of these results: At least one compound was matched to its structure with a doubt left. Some of these results come from one statement about several compounds together.
Legend:
TRF1 [1] = experiment: Western blot of TRF1 protein levels in h676 GSCs; assay type: cell-based, human; settings: 24h at 1 µM, three groups
TRF1 [2] = experiment: Screening of ETP-antitumoral library for TRF1 levels in CHA-9.3 cells (Opera High Content Screening, confocal validation); assay type: cell-based, mouse; settings: 1 µM; for inhibition of TRF1 protein levels (screening hit): CHA-9.3 mouse lung cancer cell line, 24 h, preliminary results
TRF1 [3] = experiment: Phenotypic assay that measures TRF1 levels by immunofluorescence (validation of MEK/ERK, HSP90, tubulin pathways); assay type: cell-based
h676 GSCs = experiment: Drug combination (synergy) sphere study in h676 GSCs; assay type: cell-based, human; settings: combinatorial matrix, spheres after 7 days, combination index
Description: Using this concentration as a reference point, the present inventors designed a combinatorial matrix using different concentrations of the compounds (e.g. 2x GI50, GI50 and ½ GI50) to study all the possible combinations. Combination index is calculated to establish if the combination is synergistic, additive or antagonistic (Fig. 50A).

Compound | degree of TRF1 inhibition (TRF1 protein levels) (TRF1 [1]) | inhibition of TRF1 protein levels (screening hit) (TRF1 [2]) | modulation of TRF1 levels (tubulin agents) (TRF1 [3]) | hits confirmed by confocal microscopy (TRF1 [2]; TRF1 binding to telomeres) | synergic effect with the PI3Ki (ETP-47037) (h676 GSCs)
COC1=C2C[C@@H](C)C[C@H](OC)[C@H](O)[C@@H](C)/C=C(\C)[C@H](OC(N)=O)[C@@H](OC)/C=C\C=C(/C)C(=O)NC(=CC1=O)C2=O [Geldanamycin] | medium TRF1 modulators | can inhibit TRF1 protein levels |  |  | 
CC(=O)O[C@H]1C(=O)[C@@]2(C)[C@H]([C@H](OC(=O)c3ccccc3)[C@]3(O)C[C@H](OC(=O)[C@H](O)[C@@H](NC(=O)c4ccccc4)c4ccccc4)C(C)=C1C3(C)C)[C@]1(OC(C)=O)CO[C@@H]1C[C@@H]2O [paclitaxel] |  |  | modulates more strongly |  | 
Nc1ccn([C@@H]2O[C@H](CO)[C@@H](O)C2(F)F)c(=O)n1 [Gemcitabine] | medium TRF1 modulators | can inhibit TRF1 protein levels |  | confirmed | 
Cc1nc(Nc2ncc(C(=O)Nc3c(C)cccc3Cl)s2)cc(N2CCN(CCO)CC2)n1 [Dasatinib] |  |  |  |  | significant synergic effect
